Experimental data published in the supplement of paper PMC10626197.
Structures can show the parent of a compound that is named as a salt. Several reference drugs read as weak here; read low effects with care.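 The breast cancer cell line MCF7 was treated with drug pairs over a dose grid. Each plate included DMSO-only wells as the untreated reference and a doxorubicin series as the total-kill control. These viability readings have no hit threshold applied.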

Tested on: MCF7
Experiment: cell viability relative to DMSO control (raw); higher = more viable cells
Conditions: exposure time 72 h
Procedure: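 MCF7 cells, 1000 cells/well in 384-well plates, treated with 6x6 dose matrices of drug pairs (1:3 serial dilutions, DMSO as lowest dose) for 72 h at 37 °C. Viability read by CellTiter-Glo luminescence, 3 biological replicates. Normalised viability sets 0% at the highest doxorubicin dose and 100% at the 0,0 µM control per combination.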

CO[C@H]1C(=O)[C@]2(C)[C@@H](OC)C[C@H]3OC[C@@]3(OC(C)=O)[C@H]2[C@H](OC(=O)c2ccccc2)[C@]2(O)C[C@H](OC(=O)[C@H](O)[C@@H](NC(=O)OC(C)(C)C)c3ccccc3)C(C)=C1C2(C)C [Cabazitaxel] + CN(C)C(=O)c1cc2cnc(Nc3ccc(N4CCNCC4)cn3)nc2n1C1CCCC1 [Ribociclib]
cell viability [%]
Conditions | drug 2 concentration 0 µM | drug 2 concentration 0.123457 µM | drug 2 concentration 0.37037 µM | drug 2 concentration 1.11111 µM | drug 2 concentration 3.33333 µM | drug 2 concentration 10 µM
drug 1 concentration 0.0184691 µM | 101 | 95.6 | 95.9 | 88.4 | 87.3 | 75.5
drug 1 concentration 0.0554074 µM | 105 | 96.5 | 94.1 | 86 | 86.3 | 79.2
drug 1 concentration 0.166222 µM | 107 | 102 | 100 | 97.2 | 93.9 | 86.7
drug 1 concentration 0.498667 µM | 106 | 101 | 95.4 | 86.1 | 89.7 | 80.7
drug 1 concentration 1.496 µM | 109 | 103 | 94.1 | 93.3 | 90.7 | 83.5

CCCS(=O)(=O)Nc1ccc(F)c(C(=O)c2c[nH]c3ncc(-c4ccc(Cl)cc4)cc23)c1F [Vemurafenib] + COc1cc(Nc2ncc3c(n2)-c2ccc(Cl)cc2C(c2c(F)cccc2OC)=NC3)ccc1C(=O)O [Alisertib]
cell viability [%]
Conditions | drug 2 concentration 0 µM | drug 2 concentration 0.0617284 µM | drug 2 concentration 0.185185 µM | drug 2 concentration 0.555556 µM | drug 2 concentration 1.66667 µM | drug 2 concentration 5 µM
drug 1 concentration 0.154321 µM | 87.5 | 90.1 | 82.5 | 77.2 | 77.6 | 73.9
drug 1 concentration 0.462963 µM | 80.8 | 81.7 | 82.2 | 76.9 | 76.1 | 72.7
drug 1 concentration 1.38889 µM | 86.8 | 87 | 83.9 | 77.9 | 79.6 | 74
drug 1 concentration 4.16667 µM | 84 | 82.6 | 78.4 | 78.2 | 68.9 | 72.3
drug 1 concentration 12.5 µM | 83.4 | 74.9 | 73.7 | 74 | 68.3 | 64.2

C#Cc1cccc(Nc2ncnc3cc(OCCOC)c(OCCOC)cc23)c1 [Erlotinib] + CN1CCN(CCCN2c3ccccc3Sc3ccc(C(F)(F)F)cc32)CC1 [Trifluoperazine 2HCl]
cell viability [%]
Conditions | drug 2 concentration 0 µM | drug 2 concentration 0.185185 µM | drug 2 concentration 0.555556 µM | drug 2 concentration 1.66667 µM | drug 2 concentration 5 µM | drug 2 concentration 15 µM
drug 1 concentration 0.123457 µM | 96.4 | 94 | 94.6 | 90 | 83.1 | 10.1
drug 1 concentration 0.37037 µM | 91.4 | 93.19 | 94.9 | 92.2 | 79.3 | 14.5
drug 1 concentration 1.11111 µM | 95.9 | 97.1 | 102 | 97.3 | 81.9 | 9.61
drug 1 concentration 3.33333 µM | 94.7 | 97.4 | 92.6 | 92.5 | 81 | 3.64
drug 1 concentration 10 µM | 85.5 | 83.7 | 81.2 | 82 | 78.2 | 6.28

CO[C@H]1C(=O)[C@]2(C)[C@@H](OC)C[C@H]3OC[C@@]3(OC(C)=O)[C@H]2[C@H](OC(=O)c2ccccc2)[C@]2(O)C[C@H](OC(=O)[C@H](O)[C@@H](NC(=O)OC(C)(C)C)c3ccccc3)C(C)=C1C2(C)C [Cabazitaxel] + N#CCC1(n2cc(-c3ncnc4[nH]ccc34)cn2)CN(C2CCN(C(=O)c3ccnc(C(F)(F)F)c3F)CC2)C1 [Itacitinib]
cell viability [%]
Conditions | drug 2 concentration 0 µM | drug 2 concentration 0.185185 µM | drug 2 concentration 0.555556 µM | drug 2 concentration 1.66667 µM | drug 2 concentration 5 µM | drug 2 concentration 15 µM
drug 1 concentration 0.0184691 µM | 86.5 | 85.2 | 82 | 80.7 | 79.1 | 75.7
drug 1 concentration 0.0554074 µM | 78 | 73 | 95 | 97.2 | 80.1 | 66.4
drug 1 concentration 0.166222 µM | 96.5 | 98.7 | 93.3 | 96.7 | 91.7 | 82.1
drug 1 concentration 0.498667 µM | 75.8 | 84.6 | 89.8 | 90.2 | 77.4 | 61.1
drug 1 concentration 1.496 µM | 96.6 | 97.6 | 93.6 | 92.6 | 94.1 | 85.7

N#Cc1ccc(C(c2ccc(C#N)cc2)n2cncn2)cc1 [Letrozole] + NCCc1ccc(O)c(O)c1 [Dopamine HCl]
cell viability [%]
Conditions | drug 2 concentration 0 µM | drug 2 concentration 0.123457 µM | drug 2 concentration 0.37037 µM | drug 2 concentration 1.11111 µM | drug 2 concentration 3.33333 µM | drug 2 concentration 10 µM
drug 1 concentration 0.0246914 µM | 113 | 111 | 112 | 125 | 114 | 103
drug 1 concentration 0.0740741 µM | 125 | 125 | 132 | 129 | 142 | 133
drug 1 concentration 0.222222 µM | 114 | 104 | 108 | 104 | 108 | 110
drug 1 concentration 0.666667 µM | 115 | 118 | 119 | 114 | 115 | 106
drug 1 concentration 2 µM | 121 | 117 | 119 | 122 | 122 | 121

Cc1ccc(Nc2nccc(N(C)c3ccc4c(C)n(C)nc4c3)n2)cc1S(N)(=O)=O [Pazopanib] + CN1CCN(CCCN2c3ccccc3Sc3ccc(C(F)(F)F)cc32)CC1 [Trifluoperazine 2HCl]
cell viability [%]
Conditions | drug 2 concentration 0 µM | drug 2 concentration 0.185185 µM | drug 2 concentration 0.555556 µM | drug 2 concentration 1.66667 µM | drug 2 concentration 5 µM | drug 2 concentration 15 µM
drug 1 concentration 0.617284 µM | 87.8 | 90.5 | 86.2 | 89.6 | 84.4 | 10.2
drug 1 concentration 1.85185 µM | 96.41 | 92.4 | 98.6 | 89.4 | 83.1 | 20.2
drug 1 concentration 5.55556 µM | 80.9 | 83.1 | 85 | 85.7 | 75.1 | 6.28
drug 1 concentration 16.6667 µM | 56.7 | 55.8 | 51.9 | 45.6 | 40.1 | 0.623
drug 1 concentration 50 µM | 68.1 | 63.6 | 44.1 | 32.1 | 17.4 | 0.368

CC[C@]1(O)C[C@H]2CN(CCc3c([nH]c4ccccc34)[C@@](C(=O)OC)(c3cc4c(cc3OC)N(C=O)[C@H]3[C@@](O)(C(=O)OC)[C@H](OC(C)=O)[C@]5(CC)C=CCN6CC[C@]43[C@@H]65)C2)C1 [Vincristine] + CN(C)C(=O)C(CCN1CCC(O)(c2ccc(Cl)cc2)CC1)(c1ccccc1)c1ccccc1 [Loperamide (hydrochloride)]
cell viability [%]
Conditions | drug 2 concentration 0 µM | drug 2 concentration 0.185185 µM | drug 2 concentration 0.555556 µM | drug 2 concentration 1.66667 µM | drug 2 concentration 5 µM | drug 2 concentration 15 µM
drug 1 concentration 0.0037037 µM | 108 | 109 | 108 | 110 | 112 | 72.6
drug 1 concentration 0.0111111 µM | 110 | 117 | 117 | 116 | 101 | 78
drug 1 concentration 0.0333333 µM | 98.2 | 98.2 | 100 | 97.3 | 87.5 | 70.4
drug 1 concentration 0.1 µM | 89.6 | 89.7 | 95.2 | 92.1 | 87.5 | 67.8
drug 1 concentration 0.3 µM | 91.8 | 91.4 | 90.2 | 91 | 78.7 | 58.1

O=C(c1ccc(OCCN2CCCCC2)cc1)c1c(-c2ccc(O)cc2)sc2cc(O)ccc12 [Raloxifene] + COc1ccc2cccc(CCNC(C)=O)c2c1 [Agomelatine]
cell viability [%]
Conditions | drug 2 concentration 0 µM | drug 2 concentration 0.123457 µM | drug 2 concentration 0.37037 µM | drug 2 concentration 1.11111 µM | drug 2 concentration 3.33333 µM | drug 2 concentration 10 µM
drug 1 concentration 0.0617284 µM | 99 | 100 | 105 | 102 | 107 | 104
drug 1 concentration 0.185185 µM | 103 | 111 | 105 | 113 | 112 | 109
drug 1 concentration 0.555556 µM | 103 | 105 | 103 | 107 | 110 | 104
drug 1 concentration 1.66667 µM | 101 | 102 | 105 | 102 | 104 | 99.5
drug 1 concentration 5 µM | 93.2 | 95 | 92.9 | 94.7 | 89.8 | 101

Cc1ccc(NC(=O)c2ccc(CN3CCN(C)CC3)cc2)cc1Nc1nccc(-c2cccnc2)n1 [Imatinib] + C=C1/C(=C\C=C2/CCC[C@]3(C)[C@@H]([C@H](C)CCCC(C)C)CC[C@@H]23)C[C@@H](O)C[C@@H]1O [Alfacalcidol]
cell viability [%]
Conditions | drug 2 concentration 0 µM | drug 2 concentration 0.617284 µM | drug 2 concentration 1.85185 µM | drug 2 concentration 5.55556 µM | drug 2 concentration 16.6667 µM | drug 2 concentration 50 µM
drug 1 concentration 0.123457 µM | 83.8 | 83.5 | 79.9 | 80.6 | 69.1 | 0.97
drug 1 concentration 0.37037 µM | 77.9 | 78.2 | 80.2 | 74.8 | 49.3 | 0.706
drug 1 concentration 1.11111 µM | 90.3 | 85.2 | 79 | 78.9 | 70.1 | 0.746
drug 1 concentration 3.33333 µM | 77.1 | 71.5 | 79.6 | 74 | 42.1 | 0.618
drug 1 concentration 10 µM | 78.2 | 76.3 | 67.3 | 64.8 | 47 | 0.63

Cc1ccc(Nc2nccc(N(C)c3ccc4c(C)n(C)nc4c3)n2)cc1S(N)(=O)=O [Pazopanib] + COc1cc(Nc2ncc3c(n2)-c2ccc(Cl)cc2C(c2c(F)cccc2OC)=NC3)ccc1C(=O)O [Alisertib]
cell viability [%]
Conditions | drug 2 concentration 0 µM | drug 2 concentration 0.0617284 µM | drug 2 concentration 0.185185 µM | drug 2 concentration 0.555556 µM | drug 2 concentration 1.66667 µM | drug 2 concentration 5 µM
drug 1 concentration 0.617284 µM | 95.4 | 98.4 | 106 | 110 | 96.7 | 85.3
drug 1 concentration 1.85185 µM | 93.1 | 93.6 | 98.3 | 98.2 | 89 | 87.1
drug 1 concentration 5.55556 µM | 96.1 | 92.9 | 88.5 | 76.8 | 75 | 77.7
drug 1 concentration 16.6667 µM | 58.9 | 55.9 | 62 | 59.8 | 49.9 | 57.3
drug 1 concentration 50 µM | 63.2 | 73.1 | 70.5 | 61.2 | 43.9 | 23.7

CS(=O)(=O)c1ccc(C(=O)Nc2ccc(Cl)c(-c3ccccn3)c2)c(Cl)c1 [Vismodegib] + O=C(NOC[C@H](O)CO)c1ccc(F)c(F)c1Nc1ccc(I)cc1F [PD0325901]
cell viability [%]
Conditions | drug 2 concentration 0 µM | drug 2 concentration 0.0246914 µM | drug 2 concentration 0.0740741 µM | drug 2 concentration 0.222222 µM | drug 2 concentration 0.666667 µM | drug 2 concentration 2 µM
drug 1 concentration 0.617284 µM | 100 | 96.1 | 95.2 | 91.5 | 92.3 | 95.7
drug 1 concentration 1.85185 µM | 106 | 93.1 | 100 | 108 | 102 | 93.7
drug 1 concentration 5.55556 µM | 99.5 | 107 | 97.4 | 99.8 | 97 | 100
drug 1 concentration 16.6667 µM | 92.4 | 85.6 | 85.7 | 89.6 | 91.5 | 83.4
drug 1 concentration 50 µM | 74.6 | 77.6 | 77.2 | 68.2 | 72.3 | 67.2
